Data published in article PMC13581189.
These are yes or no findings as the source states them, for the method shown. Binding seen in cells or lysates may run through a third protein. Some results given as binding are weak or reduced against the parent protein; the word gives no strength.

Amino acid sequences for entries named in this document (tags omitted). A change or cut given only in a name is not applied to a line headed by its entry.
UniProt P08047: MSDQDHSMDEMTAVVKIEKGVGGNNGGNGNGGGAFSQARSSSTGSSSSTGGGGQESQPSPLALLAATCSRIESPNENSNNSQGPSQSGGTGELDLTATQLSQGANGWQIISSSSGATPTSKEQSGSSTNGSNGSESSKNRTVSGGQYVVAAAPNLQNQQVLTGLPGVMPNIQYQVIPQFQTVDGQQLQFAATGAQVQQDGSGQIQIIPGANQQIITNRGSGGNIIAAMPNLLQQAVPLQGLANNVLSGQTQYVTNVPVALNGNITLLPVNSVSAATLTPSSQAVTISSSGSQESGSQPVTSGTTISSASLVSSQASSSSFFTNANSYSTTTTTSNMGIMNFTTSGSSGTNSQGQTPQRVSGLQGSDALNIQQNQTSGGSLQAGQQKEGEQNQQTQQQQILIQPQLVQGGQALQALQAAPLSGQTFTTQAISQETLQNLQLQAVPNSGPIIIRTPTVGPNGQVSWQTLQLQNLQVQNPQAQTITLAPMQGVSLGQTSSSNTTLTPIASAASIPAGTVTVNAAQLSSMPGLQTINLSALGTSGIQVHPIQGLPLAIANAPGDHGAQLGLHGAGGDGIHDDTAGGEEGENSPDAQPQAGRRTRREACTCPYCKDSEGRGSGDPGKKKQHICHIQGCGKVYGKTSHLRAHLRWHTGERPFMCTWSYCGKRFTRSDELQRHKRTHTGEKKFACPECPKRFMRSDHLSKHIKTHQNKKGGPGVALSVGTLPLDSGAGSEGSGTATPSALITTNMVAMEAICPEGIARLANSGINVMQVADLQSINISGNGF
UniProt P14859: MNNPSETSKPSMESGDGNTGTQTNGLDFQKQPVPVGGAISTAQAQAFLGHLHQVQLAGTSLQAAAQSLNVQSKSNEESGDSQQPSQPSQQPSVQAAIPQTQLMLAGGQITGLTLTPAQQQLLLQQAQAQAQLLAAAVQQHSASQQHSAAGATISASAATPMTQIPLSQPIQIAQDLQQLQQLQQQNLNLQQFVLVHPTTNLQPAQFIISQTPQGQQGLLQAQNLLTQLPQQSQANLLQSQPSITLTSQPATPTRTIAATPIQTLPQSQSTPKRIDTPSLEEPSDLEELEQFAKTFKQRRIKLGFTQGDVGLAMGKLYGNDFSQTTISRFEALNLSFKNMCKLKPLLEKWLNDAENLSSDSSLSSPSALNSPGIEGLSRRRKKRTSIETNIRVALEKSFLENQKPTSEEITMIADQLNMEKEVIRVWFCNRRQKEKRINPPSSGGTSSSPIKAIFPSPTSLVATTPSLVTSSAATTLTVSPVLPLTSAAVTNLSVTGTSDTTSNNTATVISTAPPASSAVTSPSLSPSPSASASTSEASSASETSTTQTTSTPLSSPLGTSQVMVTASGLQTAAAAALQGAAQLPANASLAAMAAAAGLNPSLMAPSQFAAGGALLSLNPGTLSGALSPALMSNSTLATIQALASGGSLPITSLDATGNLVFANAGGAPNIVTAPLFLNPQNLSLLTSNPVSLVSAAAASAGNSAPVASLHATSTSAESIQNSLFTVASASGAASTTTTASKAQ
UniProt Q13351: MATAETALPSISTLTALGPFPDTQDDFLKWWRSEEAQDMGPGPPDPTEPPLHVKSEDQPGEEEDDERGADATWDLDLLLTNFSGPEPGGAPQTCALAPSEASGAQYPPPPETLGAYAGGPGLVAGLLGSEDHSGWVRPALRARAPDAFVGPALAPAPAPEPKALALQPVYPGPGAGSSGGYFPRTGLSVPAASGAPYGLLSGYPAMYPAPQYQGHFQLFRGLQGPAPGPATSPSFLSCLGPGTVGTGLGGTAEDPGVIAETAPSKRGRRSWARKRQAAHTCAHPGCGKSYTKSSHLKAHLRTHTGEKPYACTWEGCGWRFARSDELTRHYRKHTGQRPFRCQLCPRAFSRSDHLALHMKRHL
UniProt P46099: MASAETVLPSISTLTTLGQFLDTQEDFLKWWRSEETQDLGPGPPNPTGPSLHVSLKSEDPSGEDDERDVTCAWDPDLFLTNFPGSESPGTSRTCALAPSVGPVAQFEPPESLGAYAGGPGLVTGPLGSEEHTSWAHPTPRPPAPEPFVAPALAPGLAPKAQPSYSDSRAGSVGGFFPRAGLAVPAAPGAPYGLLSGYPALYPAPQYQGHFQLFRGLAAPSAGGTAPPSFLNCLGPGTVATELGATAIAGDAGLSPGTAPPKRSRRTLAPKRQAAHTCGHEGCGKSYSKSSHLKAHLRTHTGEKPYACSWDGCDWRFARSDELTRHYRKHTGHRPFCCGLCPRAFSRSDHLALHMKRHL

molecular target: endogenous Halo-tagged Sp1 (human (endogenous in U2OS)) (UniProt P08047); experiment: proximity-assisted photoactivation (PAPA); live U2OS cells, 37°C; endogenous Halo-Sp1 (JF549 sender) with doxycycline-induced SNAPf-tagged receiver (JFX650); proximity index = PAPA/DR normalised to SNAPf-NLS; reports proximity within ~20 nm

| binding | Substance |
| --- | --- |
| binds | SNAPf-Oct1 (from UniProt P14859 1-743) |
| binds | SNAPf-Sp1 WT (from UniProt P08047 1-785) |

molecular target: Halo-Klf1 (human) (UniProt Q13351); experiment: proximity-assisted photoactivation (PAPA); live U2OS cells; Halo-Klf1 sender coexpressed with SNAPf receiver from a bicistronic transgene at AAVS1; normalised to nuclear SNAPf control

| binding | Substance |
| --- | --- |
| binds | Klf1 E325K (from UniProt Q13351 1-362) |
| binds | Klf1 K288X (from UniProt Q13351 1-287) (domain or fragment) |
| binds | Mouse Klf1 (from UniProt P46099 1-358) |
| binds | SNAPf-Klf1 (from UniProt Q13351 1-362) |
